# Results from the supplement of paper PMC3334620.
# The full ranking holds about 33,000 sequences; the median of “E-score (-0.5 to 0.5)” is about -0.0014, and the highest 2% start at about 0.25. This is one part of the list.
# Target: T1, Cad1 (UniProt P24813)
# T1 sequence: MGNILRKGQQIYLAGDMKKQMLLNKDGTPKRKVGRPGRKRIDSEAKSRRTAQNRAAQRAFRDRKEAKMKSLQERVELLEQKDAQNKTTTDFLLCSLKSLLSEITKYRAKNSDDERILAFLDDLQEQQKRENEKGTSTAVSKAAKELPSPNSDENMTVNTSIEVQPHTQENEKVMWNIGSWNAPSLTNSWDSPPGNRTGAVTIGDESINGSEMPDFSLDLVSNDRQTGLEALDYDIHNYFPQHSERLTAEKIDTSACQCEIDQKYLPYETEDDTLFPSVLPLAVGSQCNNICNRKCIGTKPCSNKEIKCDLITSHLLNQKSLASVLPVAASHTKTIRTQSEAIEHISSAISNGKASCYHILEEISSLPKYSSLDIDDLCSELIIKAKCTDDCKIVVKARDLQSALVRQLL
# Assay: PBM E-score (8-mer binding enrichment) (E-score (-0.5 to 0.5)); higher = stronger / more preferred TF binding
# Details: protein concentration: 100 nM; construct: GST-full length
# Description: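 Universal 'all 10-mer' protein binding microarrays (Agilent AMADID 015681) probed with GST-tagged S. cerevisiae TFs (full-length or DBD) made by in vitro transcription/translation (PURExpress), about 100-200 nM. Bound TF was detected with fluorescent anti-GST. Each ungapped 8-mer (which stands for itself and its reverse complement) is scored by the PBM enrichment score (E-score), a modified Wilcoxon-Mann-Whitney statistic from -0.5 to +0.5, computed with the Universal PBM Analysis Suite. Scale: above 0.35 generally sequence-specific binding.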
row,Sequence,PBM E-score
1,AAATACGT,0.135
2,CTCGTTAC,-0.044
3,TATGTCGA,0.127
4,CTTCTTGA,-0.0249
5,CTTTACAA,-0.0302
6,CTATCACC,-0.148
7,AGATCCCA,-0.098
8,AGACGCTC,-0.23
9,CCTGACGC,-0.122
10,AAAGGTTG,-0.158
11,CAAAAATG,-0.0404
12,AGGACAGG,-0.16
13,TAATGTCA,0.105
14,GAAGATAC,0.11
15,CCCACCCA,-0.0824
16,AACTAGGA,0.0724
17,CTATTTGA,0.0972
18,AGAACTTC,-0.11
19,AACTATGG,-0.177
20,GCTAGGCC,-0.138
21,AGTATTAT,0.0398
22,GACAGGTC,-0.186
23,GCAGGCGA,-0.051
24,CGGACTTA,-0.0525

row,Sequence,PBM E-score
1,CAGCGTTA,0.0612
2,TAAATAAA,0.125
3,AAGGGCGC,-0.144
4,CCGGCCAC,-0.172
5,AGGTATGC,0.0201
6,ACTAAGTA,0.0166
7,ATAGTGCG,0.14
8,AACACGGA,0.147
9,CATCTACC,0.054
10,ACGCGGGG,0.0463
11,CACTGCTA,-0.0446
12,GGCACGCA,-0.0233
13,CCCCTAGC,-0.241
14,ACAGTAAC,0.0984
15,CAATCCTA,-0.015
16,AGTCGGGG,-0.177
17,AGACCTAG,-0.141
18,AACTAGTG,-0.0571
19,CGTCCGAG,0.0847
20,GATAACCA,0.0873
21,AACAATCG,0.0166
22,CGGTCTAC,-0.157
23,CGTTAGTA,0.289
24,GGCTGACC,-0.121

# Shown tab-delimited: part of the list above
row	Sequence	PBM E-score
8	AACACGGA	0.147
9	CATCTACC	0.054
10	ACGCGGGG	0.0463

# (listing goes on)

row,Sequence,PBM E-score
1,ATAGGCGA,-0.114
2,TCGAGCAA,0.176
3,AGGACATG,0.0267
4,CGACGAGC,-0.0755
5,ACTGGGGC,-0.267
6,CCTTAAGC,-0.0856
7,TCGGAGAA,-0.148
8,GACTGCGC,-0.0924
9,AACCCGGC,0.0289
10,AGTCGGGA,-0.077
11,CGGATGAA,0.213
12,CTTTAAAC,-0.176
13,GCTCTTCA,-0.172
14,CATACTCA,-0.0553
15,TAGGGGCA,-0.109
16,ATAAAACA,0.0107
17,ACCTCGTA,0.0319
18,CGCCACAC,0.0228
19,CCATAGCA,-0.118
20,CCCTCTGC,-0.3
21,CCGATACA,-0.0059
22,CCATCTTA,-0.117
23,CACAGTAG,-0.0343
24,CGAGGGAG,-0.12

# Reformatted as tab-separated lines: entries from further up
row	Sequence	PBM E-score
16	ATAAAACA	0.0107
17	ACCTCGTA	0.0319
18	CGCCACAC	0.0228

# More records

row,Sequence,PBM E-score
1,ACTAGTTG,-0.0546
2,GTACAGAC,0.0229
3,AATCGGTC,0.0815
4,AATGGCGG,-0.109
5,CTCAAACC,-0.0865
6,ATGCTGCG,0.0156
7,GATAACGA,0.0737
8,GACTCGCA,-0.0793
9,AAGTCTGG,0.105
10,ATCATATG,0.133
11,CAGCAGCA,-0.0517
12,AGTCTGCA,-0.235
13,CCCTCTAG,-0.222
14,CACAATGA,0.0199
15,CAAAATTG,0.131
16,ATGTAGAG,-0.112
17,ATCCATCG,-0.0791
18,CCCATGAA,-0.0574
19,ATGCAGAC,0.153
20,TCAGGCAA,-0.04
21,AACAAATG,0.0272
22,CCTTTTAC,-0.0655
